{
  "source": "paper PMC7819943",
  "about": "“Rice protein-binding microarrays: a tool to detect cis-acting elements near promoter regions in rice”",
  "note": "Some of the results follow.",
  "data": [
    {"target": "T1, OsSMF1 (Oryza sativa, UniProt Q6ZLB0 1-436)", "T1 sequence": "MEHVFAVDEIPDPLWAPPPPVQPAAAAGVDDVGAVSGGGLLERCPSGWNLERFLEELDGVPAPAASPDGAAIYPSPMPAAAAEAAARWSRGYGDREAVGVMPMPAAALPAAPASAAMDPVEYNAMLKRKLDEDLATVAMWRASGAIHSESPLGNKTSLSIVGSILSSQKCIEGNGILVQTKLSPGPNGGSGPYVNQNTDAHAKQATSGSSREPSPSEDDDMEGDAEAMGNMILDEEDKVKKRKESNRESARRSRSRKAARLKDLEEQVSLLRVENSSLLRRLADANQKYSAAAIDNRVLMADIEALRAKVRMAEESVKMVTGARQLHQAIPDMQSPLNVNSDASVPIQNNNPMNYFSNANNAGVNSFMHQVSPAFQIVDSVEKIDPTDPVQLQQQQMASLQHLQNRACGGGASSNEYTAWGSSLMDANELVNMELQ", "assay": "protein-binding microarray (RPBM); PBS, 2% BSA, 51.3 ng/ul salmon testes DNA, 50 uM zinc acetate, 200 nM TF, 25 C, 1 h; high values mean tight binding", "conditions": "protein: recombinant; tags: N-terminal polyhistidine and DsRed monomer fusion (pET32a); chain copies: 2; label: CyDye5-dUTP incorporated in the synthesized complementary strand; 3' TTTTT single-stranded linker to array surface; dsDNA, one strand shown", "how_it_was_run": "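Using Ni–NTA, transcription factors fused N-terminally to polyhistidine and DsRed were purified after expression in E. coli BL21-CodonPlus. These were incubated at 200 nM with a blocked, double-stranded custom Agilent array for 1 h at 25 °C in a buffer containing 50 µM zinc acetate, and the array was washed. The binding signal is per-feature fluorescence intensity (arbitrary units) on an Axon 4000B scanner.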", "values": [
      {"sequence": "TGGTGCTTGCCAGTACGTTATTTCTAATAATGTGCTGACTCGGAGTCACCTAGTGCAG", "binding signal": "4620 fluorescence intensity (a.u.)"},
      {"sequence": "TCATTTTCAGATTAGAGGCTTTGCATGGCCTGCAGTTCTGCGGAGTCACCTAGTGCAG", "binding signal": "31600 fluorescence intensity (a.u.)"},
      {"sequence": "CGGTCTTGTTGCAGACACGTCCTTCCTATTTGTTTCCAAACGGAGTCACCTAGTGCAG", "binding signal": "6760 fluorescence intensity (a.u.)"},
      {"sequence": "CAAGCTGGCTGCCTCCCGCGTGGCACTCGTGCCTCCTCTGCGGAGTCACCTAGTGCAG", "binding signal": "5530 fluorescence intensity (a.u.)"},
      {"sequence": "TTAAGTAGGATACGATCACACGATGCATGCATGTGGAGTACGGAGTCACCTAGTGCAG", "binding signal": "3550 fluorescence intensity (a.u.)"},
      {"sequence": "TTGTGAAATTGAAAATACACCTTATAATGAGGTGGTTTTCCGGAGTCACCTAGTGCAG", "binding signal": "4050 fluorescence intensity (a.u.)"},
      {"sequence": "AATCGAGTATATGTCATCGTCGTCGTCATGTCATGCAGCCCGGAGTCACCTAGTGCAG", "binding signal": "5200 fluorescence intensity (a.u.)"},
      {"sequence": "GTCGAACCGCTGCGTCACTCTGGTCAGGCGGCATGTGATCCGGAGTCACCTAGTGCAG", "binding signal": "6390 fluorescence intensity (a.u.)"},
      {"sequence": "CTCCCGCCCGCCGCAGCCGACGCCACGCGCGCGATCTCCCCGGAGTCACCTAGTGCAG", "binding signal": "3390 fluorescence intensity (a.u.)"},
      {"sequence": "ATCTTGATGGGTACGTGTCCAACATCGTCATGGCCATTGGCGGAGTCACCTAGTGCAG", "binding signal": "5290 fluorescence intensity (a.u.)"},
      {"sequence": "GTTGTCACCCTTGTGACTATTGTGACGTGTGCATATCTCACGGAGTCACCTAGTGCAG", "binding signal": "10800 fluorescence intensity (a.u.)"},
      {"sequence": "ATCACATGTCATACACACACAACTTTTCAGTCACATCATCCGGAGTCACCTAGTGCAG", "binding signal": "3510 fluorescence intensity (a.u.)"},
      {"sequence": "CTGACATGTTTCTTTACATACTTATATAATCCAATTAATACGGAGTCACCTAGTGCAG", "binding signal": "29200 fluorescence intensity (a.u.)"},
      {"sequence": "CACAGCTATACTGGAACGATGGAATCTCCAATTAGTACACCGGAGTCACCTAGTGCAG", "binding signal": "16700 fluorescence intensity (a.u.)"},
      {"sequence": "ATTCTCCTCGCTTCCTCCTCTTTCTCTCTCTACGCCCTCGCGGAGTCACCTAGTGCAG", "binding signal": "12200 fluorescence intensity (a.u.)"},
      {"sequence": "CTGTCTGTCGTATATACGTATGAGGTGGTAGTATCTCCGTCGGAGTCACCTAGTGCAG", "binding signal": "3410 fluorescence intensity (a.u.)"},
      {"sequence": "CTAACAAACGCAGCCGAGACTGTTGGAACATAATCTTGGGCGGAGTCACCTAGTGCAG", "binding signal": "3190 fluorescence intensity (a.u.)"},
      {"sequence": "CGGGAGCCAGGTGGATTGGGCTGAGGTGGTGGTGGTGGGCCGGAGTCACCTAGTGCAG", "binding signal": "4900 fluorescence intensity (a.u.)"},
      {"sequence": "CCAAAGGCCCAAAACCAGCCTCCGTCTCCGTGTCACCCCTCGGAGTCACCTAGTGCAG", "binding signal": "5070 fluorescence intensity (a.u.)"},
      {"sequence": "AACATTGTGCTTGTCATCATAATTCGTCACTAGCAGGCTTCGGAGTCACCTAGTGCAG", "binding signal": "4900 fluorescence intensity (a.u.)"},
      {"sequence": "TGACACGGGAAAGCACCACCCGATGACTAGACCAGAGACCCGGAGTCACCTAGTGCAG", "binding signal": "5270 fluorescence intensity (a.u.)"},
      {"sequence": "AACTTGGTGGGTTTGGTTTTGCTCTTTCTGTTGACCAAGCCGGAGTCACCTAGTGCAG", "binding signal": "3190 fluorescence intensity (a.u.)"},
      {"sequence": "GCCATCCAAAGCCTTGGGCCCACAGAACAGTCTCCCTTTACGGAGTCACCTAGTGCAG", "binding signal": "23200 fluorescence intensity (a.u.)"},
      {"sequence": "AACCACAAGACGACGATGGGTTGGTGGCCGGCCGCCTCCCCGGAGTCACCTAGTGCAG", "binding signal": "23800 fluorescence intensity (a.u.)"},
      {"sequence": "TCCAGATCCACACCAGCCACCCGACCGAGTCACGTGCGTCCGGAGTCACCTAGTGCAG", "binding signal": "3370 fluorescence intensity (a.u.)"},
      {"sequence": "TGGAGAGGAGAGGGAGGGGTTTCCGGCCCCTTTGCATTTGCGGAGTCACCTAGTGCAG", "binding signal": "3720 fluorescence intensity (a.u.)"},
      {"sequence": "GCGGCACAGCGGCTACAGCTAGTGCGAGCCACGGGTGCATCGGAGTCACCTAGTGCAG", "binding signal": "4200 fluorescence intensity (a.u.)"},
      {"sequence": "GTCGCAGGGGCCGAACACCGTCAACCCTGAGATCCTAAAGCGGAGTCACCTAGTGCAG", "binding signal": "3290 fluorescence intensity (a.u.)"},
      {"sequence": "ATGCAACAGCATCACACTATCACAGTCATGTAGGCCCAAGCGGAGTCACCTAGTGCAG", "binding signal": "4500 fluorescence intensity (a.u.)"},
      {"sequence": "ATCGTGTCAGCTCAACGTGTCAGGCGTCGAATCTCGTAAACGGAGTCACCTAGTGCAG", "binding signal": "4230 fluorescence intensity (a.u.)"},
      {"sequence": "AACGTAACAAGACGACGTTCTGACTCGTGACGCGAAGTTTCGGAGTCACCTAGTGCAG", "binding signal": "4420 fluorescence intensity (a.u.)"},
      {"sequence": "GCCGCCTTTCGTTACCCACCAACCCAACCTCGTTCTACGGCGGAGTCACCTAGTGCAG", "binding signal": "35900 fluorescence intensity (a.u.)"},
      {"sequence": "TTGATTGGAATACGGTGGATGATACTGAAGTAGACAAGAACGGAGTCACCTAGTGCAG", "binding signal": "16000 fluorescence intensity (a.u.)"},
      {"sequence": "GTTATATCTCACGTGTCAAAATTCCTATGATTTTCAGTAACGGAGTCACCTAGTGCAG", "binding signal": "4700 fluorescence intensity (a.u.)"},
      {"sequence": "CTGGACCAATAAGAGGGCCTCATCATGGCCACCCAATCGGCGGAGTCACCTAGTGCAG", "binding signal": "3180 fluorescence intensity (a.u.)"},
      {"sequence": "GCTCCTTTCCTGCCTTGCTAGTGCGGCGCCGGTCACGGCACGGAGTCACCTAGTGCAG", "binding signal": "3260 fluorescence intensity (a.u.)"},
      {"sequence": "ACAAATTATAAGTAACAAACTTTTGTGACGTATAGTAGCCCGGAGTCACCTAGTGCAG", "binding signal": "4440 fluorescence intensity (a.u.)"},
      {"sequence": "GCGTTGCTGCTTCATTGTGTTACACGTAGTTGCTTAGGCACGGAGTCACCTAGTGCAG", "binding signal": "5060 fluorescence intensity (a.u.)"},
      {"sequence": "CAGTCAGTACATAGCTGATCACTCTCATCTCTTGCATCTACGGAGTCACCTAGTGCAG", "binding signal": "3570 fluorescence intensity (a.u.)"},
      {"sequence": "ATCATCTATCAATCCCTACCATCGCCCTCTTTCTGTTTTGCGGAGTCACCTAGTGCAG", "binding signal": "3310 fluorescence intensity (a.u.)"},
      {"sequence": "GCTGCTGAGTCAACAACGACGACCGAGGTCAAAGCGCCACCGGAGTCACCTAGTGCAG", "binding signal": "10000 fluorescence intensity (a.u.)"},
      {"sequence": "CGCACGCATCGTCGCGGCGGCGAGACGTGCCACCGCTTCGCGGAGTCACCTAGTGCAG", "binding signal": "3420 fluorescence intensity (a.u.)"}
    ]}
  ]
}
